Experimental data as given in article PMC8067440 (Journal of Personalized Medicine, 2021).
These are yes or no findings as the source states them, for the method shown. Binding seen in cells or lysates may run through a third protein. Some results given as binding are weak or reduced against the parent protein; the word gives no strength.

Amino acid sequences for entries named in this document (tags omitted). A change or cut given only in a name is not applied to a line headed by its entry. Chains listed by the source or under a name are the forms on record and can include a tag or linker.
DMi, dimeric AGT (minor allele), expressed in CHO-GO cells (P21549, form named): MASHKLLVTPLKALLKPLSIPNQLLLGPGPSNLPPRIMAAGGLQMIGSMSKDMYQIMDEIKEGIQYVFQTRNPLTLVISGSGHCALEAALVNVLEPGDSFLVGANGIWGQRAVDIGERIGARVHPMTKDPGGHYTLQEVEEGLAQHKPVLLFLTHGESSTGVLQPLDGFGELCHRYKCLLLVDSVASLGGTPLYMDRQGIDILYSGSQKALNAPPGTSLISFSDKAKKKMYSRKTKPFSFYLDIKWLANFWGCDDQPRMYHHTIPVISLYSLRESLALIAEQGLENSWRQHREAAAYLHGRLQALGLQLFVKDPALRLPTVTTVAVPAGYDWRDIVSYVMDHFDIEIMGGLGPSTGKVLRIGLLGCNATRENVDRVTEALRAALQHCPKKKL

Key:
[1] = biological target: DMa, dimeric AGT (major allele), expressed in CHO-GO cells (human) (UniProt P21549); test: cross-linking; whole lysate of CHO-GO cells (low-B6 medium) cross-linked with BS(PEG)5 for 30 min, quenched with Tris-HCl, Western blot with anti-AGT
[2] = biological target: DMi, dimeric AGT (minor allele), expressed in CHO-GO cells (human) (UniProt P21549); test: as above

binding [1]	binding [2]	Substance
binds		DMa, dimeric AGT (major allele), expressed in CHO-GO cells (from UniProt P21549 1-392) (enzyme)
	binds	DMi, dimeric AGT (minor allele), expressed in CHO-GO cells (from UniProt P21549 1-392) (enzyme)
